These are yes or no findings as the source states them, for the method shown. Some entries that bind do so weakly or less than the wild type. Each block holds one binder with its values, some of them ahead of it.
Biological target: T1, H6NA3 (UniProt P06731 35-144; P06731 499-590, limits assumed)
T1 construct: domain: N domain;domain: A3 domain; recombinant truncated target
T1 sequence: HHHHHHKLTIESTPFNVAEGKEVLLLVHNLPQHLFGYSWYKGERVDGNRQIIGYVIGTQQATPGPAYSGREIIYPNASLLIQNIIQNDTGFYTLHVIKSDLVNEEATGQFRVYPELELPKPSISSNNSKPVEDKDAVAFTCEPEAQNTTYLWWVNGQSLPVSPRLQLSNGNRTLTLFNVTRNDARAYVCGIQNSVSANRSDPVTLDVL
Assay: phage ELISA on NA3

B2: 304A-13-C01 (peptide)
peptide: DWVCEIDKGQWTCNPL
binding: binds

B3: 304A-15-A02 (peptide)
peptide: DWVCEFFKKQWFCNLL
binding: binds

B4: 304A-11-A11 (peptide)
peptide: DWICNLFKNQWFCDIR
binding: binds

B6: 315A-17-F04 (peptide)
peptide: DWVCEWLKSQWFCNSL
binding: binds

B7: 304A-13-H07 (peptide)
peptide: DWVCELVKAQWYCNIL
binding: binds

B8: 304A-12-F05 (peptide)
peptide: DWVCEWLKMQWACNML
binding: binds

B9: 315A-18-E02 (peptide)
peptide: DWVCEFFKDQWFCNIL
binding: binds

B10: 304A-12-H02 (peptide)
peptide: AWPCNLFKNQWFCPPQ
binding: binds

B13: 304A-13-F05 (peptide)
peptide: DWICNLFKNQWFCEAH
binding: binds

B15: 304A-11-H10 (peptide)
peptide: IWDCNLFKNQWFCPAP
binding: binds

B17: 315A-17-E12 (peptide)
peptide: DWVCNLFKNQWFCDLS
binding: binds

B18: 304A-12-C09 (peptide)
peptide: DWVCDFFFNQWTCNLL
binding: binds

B20: 304A-15-A07 (peptide)
peptide: NWVCNLFKNQWFCEWA
binding: binds

B22: 304A-12-E09 (peptide)
peptide: DWICNLFKNQWFCDAW
binding: binds

B23: 315A-17-B05 (peptide)
peptide: DWVCEWLKMQWACNVL
binding: binds

B24: 304A-15-A05 (peptide)
peptide: DWVCEVIKDQWVCNPL
binding: binds

B25: 304A-13-C10 (peptide)
peptide: DWYCNLFKNQWFCDVL
binding: binds

B29: 304A-15-E01 (peptide)
peptide: DWYCNLFKNQWFCDVY
binding: binds

B32: 304A-11-B07 (peptide)
peptide: DWICNLFKNQWFCQVK
binding: binds

B33: 315A-18-B02 (peptide)
peptide: DWVCEWLKHQWFCNAL
binding: binds

B35: 304A-15-C03 (peptide)
peptide: DWICNLFKNQWFCQQH
binding: binds

B36: 304A-12-A02 (peptide)
peptide: DWVCNLFKNQWFCNVM
binding: binds

B37: 304A-13-E04 (peptide)
peptide: DWVCNLFFGQWTCNLL
binding: binds

B41: 315A-18-E01 (peptide)
peptide: DWVCEIVKNQWICNPL
binding: binds

B43: 315A-18-E04 (peptide)
peptide: DWVCEFLKMQWACNVL
binding: binds

B44: 304A-15-G01 (peptide)
peptide: DWFCNLFKNQWFCSPI
binding: binds

B45: 304A-15-H03 (peptide)
peptide: DWVCNWLWGQWTCNLL
binding: binds

B46: 304A-11-E04 (peptide)
peptide: DWICNLFKNQWFCDQM
binding: binds

B47: 304A-15-F02 (peptide)
peptide: NWVCDVLKWQWPCNSY
binding: binds

B49: 315A-17-B02 (peptide)
peptide: DWVCEWLKMQWFCNAL
binding: binds

B51: 304A-11-H11 (peptide)
peptide: DWICNLFKNQWFCDAI
binding: binds

B53: 304A-13-G08 (peptide)
peptide: NWVCNLFKNQWFCDTV
binding: binds

B54: 304A-13-C09 (peptide)
peptide: DWVCEFYKSQWNCNIL
binding: binds

B55: 304A-12-A05 (peptide)
peptide: DWVCNLFKNQWFCDVL
binding: binds

B56: 304A-11-A02 (peptide)
peptide: DWMCNLFKNQWFCDLM
binding: binds

B57: 304A-14-H03 (peptide)
peptide: DWVCEFMKHQWFCNPL
binding: binds

B58: 304A-12-G12 (peptide)
peptide: DWVCNLFKNQWFCDVW
binding: binds

B59: 304A-14-C01 (peptide)
peptide: DWVCNWELFQWTCNLL
binding: binds

B60: 315A-17-B06 (peptide)
peptide: DWVCEWLKMQWACNML
binding: binds

B61: 304A-14-F10 (peptide)
peptide: DWVCEYEKDQWSCNIL
binding: binds

B62: 304A-11-A12 (peptide)
peptide: DWICNLFKNQWFCDMA
binding: binds

B63: 304A-12-C05 (peptide)
peptide: DWVCNLFKNQWFCDKW
binding: binds

B64: 304A-14-A03 (peptide)
peptide: DWVCNLFKNQWFCDSL
binding: binds

B65: 304A-13-A12 (peptide)
peptide: DWICNLFKNQWFCNEA
binding: binds

B66: 304A-12-D09 (peptide)
peptide: DWVCEMFKAQWFCNAL
binding: binds

B67: 304A-14-G02 (peptide)
peptide: DWVCEFFKQQWFCNVL
binding: binds

Further lines, results first:

binding: binds
B1: 315A-17-G08 (peptide)
peptide: DWVCEFIKSQWFCNVL

binding: binds
B5: 304A-14-B06 (peptide)
peptide: DWICNLFKNQWFCQAV

binding: binds
B11: 304A-11-H07 (peptide)
peptide: DWVCNLFKNQWFCDVM

binding: binds
B12: 304A-14-A10 (peptide)
peptide: DWVCNLFKNQWFCDAL

binding: binds
B14: 315A-17-B12 (peptide)
peptide: DWVCEWLKPQWYCNSL

binding: binds
B16: 304A-11-G11 (peptide)
peptide: DWMCNLFKNQWFCDVV

binding: binds
B19: 304A-15-G02 (peptide)
peptide: DWVCEYDKGQWHCNIL

binding: binds
B21: 304A-13-A03 (peptide)
peptide: DWVCNLFKNQWFCDVQ

binding: binds
B26: 304A-14-H08 (peptide)
peptide: DWVCEFIKNQWMCNVL

binding: binds
B27: 304A-15-G06 (peptide)
peptide: DWVCEYAKNQWNCNPL

binding: binds
B28: 304A-15-C04 (peptide)
peptide: DWVCEMFKKQWVCNPL

binding: binds
B30: 304A-11-C02 (peptide)
peptide: DWMCNLFKNQWFCDVV

binding: binds
B31: 304A-15-E05 (peptide)
peptide: DWVCENKNFKWFCNLL

binding: binds
B34: 304A-11-C09 (peptide)
peptide: DWMCNLFKNQWFCDQI

binding: binds
B38: 304A-11-F02 (peptide)
peptide: DWVCNLFKNQWFCDLM

binding: binds
B39: 304A-13-A11 (peptide)
peptide: DWVCEYNDEQWTCNLL

binding: binds
B40: 304A-13-B02 (peptide)
peptide: DWVCNLFKNQWFCNPF

binding: binds
B42: 304A-12-E01 (peptide)
peptide: DWVCEFLKMQWACNVL

binding: binds
B48: 304A-14-A02 (peptide)
peptide: DWVCNLFKNQWFCDQV

binding: binds
B50: 304A-11-D06 (peptide)
peptide: NWICNLFKNQWFCDQE

binding: binds
B52: 304A-13-A10 (peptide)
peptide: DWVCEWFKPQWFCNPL

binding: binds
B68: 304A-14-H02 (peptide)
peptide: DWVCEFFKDQWSCNVL

— patent publication US20030203415A1 (published 2003)
